Measured values published in publication PMC4906169.
Results are given in words; binding and its absence hold for the method and conditions named. In cells and extracts the contact can be indirect. Some results given as binding are weak or reduced against the parent protein; the word gives no strength. Where a sequence is shown, tags or fusion partners need not be part of it.

T1: STELLO1 (STL1), BiFC fusion (Yn-STL1 / Yc-STL1) (Arabidopsis thaliana) (UniProt O22943)
T1 sequence: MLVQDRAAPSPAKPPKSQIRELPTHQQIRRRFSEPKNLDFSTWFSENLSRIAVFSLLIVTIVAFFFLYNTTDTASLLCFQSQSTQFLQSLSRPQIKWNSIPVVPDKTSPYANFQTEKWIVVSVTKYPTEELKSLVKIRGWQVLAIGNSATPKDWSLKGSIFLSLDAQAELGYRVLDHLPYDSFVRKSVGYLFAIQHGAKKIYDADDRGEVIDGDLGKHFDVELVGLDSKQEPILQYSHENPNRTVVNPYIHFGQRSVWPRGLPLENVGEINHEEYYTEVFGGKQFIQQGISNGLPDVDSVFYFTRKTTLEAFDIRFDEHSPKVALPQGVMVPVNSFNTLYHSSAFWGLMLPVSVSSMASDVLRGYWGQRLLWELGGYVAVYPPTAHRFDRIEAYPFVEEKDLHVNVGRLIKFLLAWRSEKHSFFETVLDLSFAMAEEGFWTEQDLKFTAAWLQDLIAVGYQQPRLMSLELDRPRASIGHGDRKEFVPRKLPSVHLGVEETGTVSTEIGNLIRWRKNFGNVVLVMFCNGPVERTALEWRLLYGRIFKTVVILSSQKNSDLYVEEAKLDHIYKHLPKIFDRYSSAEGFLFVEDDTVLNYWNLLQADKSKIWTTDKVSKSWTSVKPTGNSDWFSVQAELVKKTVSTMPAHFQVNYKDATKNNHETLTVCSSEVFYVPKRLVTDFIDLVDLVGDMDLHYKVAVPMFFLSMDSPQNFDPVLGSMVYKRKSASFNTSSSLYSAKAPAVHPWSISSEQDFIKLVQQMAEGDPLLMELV

T2: STELLO2 (STL2), BiFC fusion (Yn-STL2 / Yc-STL2) (Arabidopsis thaliana) (UniProt Q9SCN0)
T2 sequence: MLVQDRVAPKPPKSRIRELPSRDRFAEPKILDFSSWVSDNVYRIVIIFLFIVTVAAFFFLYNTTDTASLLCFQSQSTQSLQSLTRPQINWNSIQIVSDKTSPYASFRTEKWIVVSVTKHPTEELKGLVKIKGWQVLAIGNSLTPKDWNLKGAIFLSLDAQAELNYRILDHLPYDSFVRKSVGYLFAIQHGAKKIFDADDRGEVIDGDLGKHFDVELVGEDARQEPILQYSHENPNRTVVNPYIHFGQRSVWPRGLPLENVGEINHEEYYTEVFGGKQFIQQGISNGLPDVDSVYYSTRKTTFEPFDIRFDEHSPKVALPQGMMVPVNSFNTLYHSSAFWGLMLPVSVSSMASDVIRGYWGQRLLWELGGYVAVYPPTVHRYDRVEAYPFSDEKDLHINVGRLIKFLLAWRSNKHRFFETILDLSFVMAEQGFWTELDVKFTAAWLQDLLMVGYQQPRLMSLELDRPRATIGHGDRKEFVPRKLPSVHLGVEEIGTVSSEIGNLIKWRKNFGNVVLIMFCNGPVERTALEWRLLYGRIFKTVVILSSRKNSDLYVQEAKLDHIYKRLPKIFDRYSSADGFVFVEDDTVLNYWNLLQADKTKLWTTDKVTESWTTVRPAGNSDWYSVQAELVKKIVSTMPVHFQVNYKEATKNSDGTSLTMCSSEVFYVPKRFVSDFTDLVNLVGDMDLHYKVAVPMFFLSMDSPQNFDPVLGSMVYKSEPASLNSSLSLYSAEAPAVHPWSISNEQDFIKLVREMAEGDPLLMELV

B1: Cellulose synthase CesA1, BiFC fusion (protein, UniProt O48946 1-1081)
chain: MEASAGLVAGSYRRNELVRIRHESDGGTKPLKNMNGQICQICGDDVGLAETGDVFVACNECAFPVCRPCYEYERKDGTQCCPQCKTRFRRHRGSPRVEGDEDEDDVDDIENEFNYAQGANKARHQRHGEEFSSSSRHESQPIPLLTHGHTVSGEIRTPDTQSVRTTSGPLGPSDRNAISSPYIDPRQPVPVRIVDPSKDLNSYGLGNVDWKERVEGWKLKQEKNMLQMTGKYHEGKGGEIEGTGSNGEELQMADDTRLPMSRVVPIPSSRLTPYRVVIILRLIILCFFLQYRTTHPVKNAYPLWLTSVICEIWFAFSWLLDQFPKWYPINRETYLDRLAIRYDRDGEPSQLVPVDVFVSTVDPLKEPPLVTANTVLSILSVDYPVDKVACYVSDDGSAMLTFESLSETAEFAKKWVPFCKKFNIEPRAPEFYFAQKIDYLKDKIQPSFVKERRAMKREYEEFKVRINALVAKAQKIPEEGWTMQDGTPWPGNNTRDHPGMIQVFLGHSGGLDTDGNELPRLIYVSREKRPGFQHHKKAGAMNALIRVSAVLTNGAYLLNVDCDHYFNNSKAIKEAMCFMMDPAIGKKCCYVQFPQRFDGIDLHDRYANRNIVFFDINMKGLDGIQGPVYVGTGCCFNRQALYGYDPVLTEEDLEPNIIVKSCCGSRKKGKSSKKYNYEKRRGINRSDSNAPLFNMEDIDEGFEGYDDERSILMSQRSVEKRFGQSPVFIAATFMEQGGIPPTTNPATLLKEAIHVISCGYEDKTEWGKEIGWIYGSVTEDILTGFKMHARGWISIYCNPPRPAFKGSAPINLSDRLNQVLRWALGSIEILLSRHCPIWYGYHGRLRLLERIAYINTIVYPITSIPLIAYCILPAFCLITDRFIIPEISNYASIWFILLFISIAVTGILELRWSGVSIEDWWRNEQFWVIGGTSAHLFAVFQGLLKVLAGIDTNFTVTSKATDEDGDFAELYIFKWTALLIPPTTVLLVNLIGIVAGVSYAVNSGYQSWGPLFGKLFFALWVIAHLYPFLKGLLGRQNRTPTIVIVWSVLLASIFSLLWVRINPFVDANPNANNFNGKGGVF
B2: Cellulose synthase CesA3, BiFC fusion (protein, UniProt Q941L0 1-1065)
chain: MESEGETAGKPMKNIVPQTCQICSDNVGKTVDGDRFVACDICSFPVCRPCYEYERKDGNQSCPQCKTRYKRLKGSPAIPGDKDEDGLADEGTVEFNYPQKEKISERMLGWHLTRGKGEEMGEPQYDKEVSHNHLPRLTSRQDTSGEFSAASPERLSVSSTIAGGKRLPYSSDVNQSPNRRIVDPVGLGNVAWKERVDGWKMKQEKNTGPVSTQAASERGGVDIDASTDILADEALLNDEARQPLSRKVSIPSSRINPYRMVIMLRLVILCLFLHYRITNPVPNAFALWLVSVICEIWFALSWILDQFPKWFPVNRETYLDRLALRYDREGEPSQLAAVDIFVSTVDPLKEPPLVTANTVLSILAVDYPVDKVSCYVSDDGAAMLSFESLAETSEFARKWVPFCKKYSIEPRAPEWYFAAKIDYLKDKVQTSFVKDRRAMKREYEEFKIRINALVSKALKCPEEGWVMQDGTPWPGNNTRDHPGMIQVFLGQNGGLDAEGNELPRLVYVSREKRPGFQHHKKAGAMNALVRVSAVLTNGPFILNLDCDHYINNSKALREAMCFLMDPNLGKQVCYVQFPQRFDGIDKNDRYANRNTVFFDINLRGLDGIQGPVYVGTGCVFNRTALYGYEPPIKVKHKKPSLLSKLCGGSRKKNSKAKKESDKKKSGRHTDSTVPVFNLDDIEEGVEGAGFDDEKALLMSQMSLEKRFGQSAVFVASTLMENGGVPPSATPENLLKEAIHVISCGYEDKSDWGMEIGWIYGSVTEDILTGFKMHARGWRSIYCMPKLPAFKGSAPINLSDRLNQVLRWALGSVEILFSRHCPIWYGYNGRLKFLERFAYVNTTIYPITSIPLLMYCTLPAVCLFTNQFIIPQISNIASIWFLSLFLSIFATGILEMRWSGVGIDEWWRNEQFWVIGGVSAHLFAVFQGILKVLAGIDTNFTVTSKASDEDGDFAELYLFKWTTLLIPPTTLLIVNLVGVVAGVSYAINSGYQSWGPLFGKLFFAFWVIVHLYPFLKGLMGRQNRTPTIVVVWSVLLASIFSLLWVRIDPFTSRVTGPDILECGINC
B3: STELLO1 (STL1), BiFC fusion (Yn-STL1 / Yc-STL1) (protein, UniProt O22943 1-771)
chain: T1 sequence
B4: STELLO2 (STL2), BiFC fusion (Yn-STL2 / Yc-STL2) (protein, UniProt Q9SCN0 1-765)
chain: T2 sequence

Molecular target: T1, STELLO1 (STL1), BiFC fusion (Yn-STL1 / Yc-STL1) (Arabidopsis thaliana)
Test: split reporter; BiFC with Yn/Yc halves of VENUS fused to the N-termini; transient co-expression in N. benthamiana epidermal leaf cells, imaged by confocal microscopy 62 h after infiltration

Row | Binder | binding
1 | B1 | binds
2 | B2 | binds
3 | B3 | binds

Molecular target: T2, STELLO2 (STL2), BiFC fusion (Yn-STL2 / Yc-STL2) (Arabidopsis thaliana)
Test: as above

Row | Binder | binding
4 | B1 | binds
5 | B2 | binds
6 | B4 | binds
